According to article PMC4690333:
No constants are given. Whether binding was seen depends on the method and setting. Binding seen in cells or lysates may run through a third protein. Some results given as binding are weak or reduced against the parent protein; the word gives no strength. Blank lines part the entries; values can stand above or below the molecule they belong to.

By UniProt entry, the sequences of proteins in these tests, tags left out.
UniProt P51593: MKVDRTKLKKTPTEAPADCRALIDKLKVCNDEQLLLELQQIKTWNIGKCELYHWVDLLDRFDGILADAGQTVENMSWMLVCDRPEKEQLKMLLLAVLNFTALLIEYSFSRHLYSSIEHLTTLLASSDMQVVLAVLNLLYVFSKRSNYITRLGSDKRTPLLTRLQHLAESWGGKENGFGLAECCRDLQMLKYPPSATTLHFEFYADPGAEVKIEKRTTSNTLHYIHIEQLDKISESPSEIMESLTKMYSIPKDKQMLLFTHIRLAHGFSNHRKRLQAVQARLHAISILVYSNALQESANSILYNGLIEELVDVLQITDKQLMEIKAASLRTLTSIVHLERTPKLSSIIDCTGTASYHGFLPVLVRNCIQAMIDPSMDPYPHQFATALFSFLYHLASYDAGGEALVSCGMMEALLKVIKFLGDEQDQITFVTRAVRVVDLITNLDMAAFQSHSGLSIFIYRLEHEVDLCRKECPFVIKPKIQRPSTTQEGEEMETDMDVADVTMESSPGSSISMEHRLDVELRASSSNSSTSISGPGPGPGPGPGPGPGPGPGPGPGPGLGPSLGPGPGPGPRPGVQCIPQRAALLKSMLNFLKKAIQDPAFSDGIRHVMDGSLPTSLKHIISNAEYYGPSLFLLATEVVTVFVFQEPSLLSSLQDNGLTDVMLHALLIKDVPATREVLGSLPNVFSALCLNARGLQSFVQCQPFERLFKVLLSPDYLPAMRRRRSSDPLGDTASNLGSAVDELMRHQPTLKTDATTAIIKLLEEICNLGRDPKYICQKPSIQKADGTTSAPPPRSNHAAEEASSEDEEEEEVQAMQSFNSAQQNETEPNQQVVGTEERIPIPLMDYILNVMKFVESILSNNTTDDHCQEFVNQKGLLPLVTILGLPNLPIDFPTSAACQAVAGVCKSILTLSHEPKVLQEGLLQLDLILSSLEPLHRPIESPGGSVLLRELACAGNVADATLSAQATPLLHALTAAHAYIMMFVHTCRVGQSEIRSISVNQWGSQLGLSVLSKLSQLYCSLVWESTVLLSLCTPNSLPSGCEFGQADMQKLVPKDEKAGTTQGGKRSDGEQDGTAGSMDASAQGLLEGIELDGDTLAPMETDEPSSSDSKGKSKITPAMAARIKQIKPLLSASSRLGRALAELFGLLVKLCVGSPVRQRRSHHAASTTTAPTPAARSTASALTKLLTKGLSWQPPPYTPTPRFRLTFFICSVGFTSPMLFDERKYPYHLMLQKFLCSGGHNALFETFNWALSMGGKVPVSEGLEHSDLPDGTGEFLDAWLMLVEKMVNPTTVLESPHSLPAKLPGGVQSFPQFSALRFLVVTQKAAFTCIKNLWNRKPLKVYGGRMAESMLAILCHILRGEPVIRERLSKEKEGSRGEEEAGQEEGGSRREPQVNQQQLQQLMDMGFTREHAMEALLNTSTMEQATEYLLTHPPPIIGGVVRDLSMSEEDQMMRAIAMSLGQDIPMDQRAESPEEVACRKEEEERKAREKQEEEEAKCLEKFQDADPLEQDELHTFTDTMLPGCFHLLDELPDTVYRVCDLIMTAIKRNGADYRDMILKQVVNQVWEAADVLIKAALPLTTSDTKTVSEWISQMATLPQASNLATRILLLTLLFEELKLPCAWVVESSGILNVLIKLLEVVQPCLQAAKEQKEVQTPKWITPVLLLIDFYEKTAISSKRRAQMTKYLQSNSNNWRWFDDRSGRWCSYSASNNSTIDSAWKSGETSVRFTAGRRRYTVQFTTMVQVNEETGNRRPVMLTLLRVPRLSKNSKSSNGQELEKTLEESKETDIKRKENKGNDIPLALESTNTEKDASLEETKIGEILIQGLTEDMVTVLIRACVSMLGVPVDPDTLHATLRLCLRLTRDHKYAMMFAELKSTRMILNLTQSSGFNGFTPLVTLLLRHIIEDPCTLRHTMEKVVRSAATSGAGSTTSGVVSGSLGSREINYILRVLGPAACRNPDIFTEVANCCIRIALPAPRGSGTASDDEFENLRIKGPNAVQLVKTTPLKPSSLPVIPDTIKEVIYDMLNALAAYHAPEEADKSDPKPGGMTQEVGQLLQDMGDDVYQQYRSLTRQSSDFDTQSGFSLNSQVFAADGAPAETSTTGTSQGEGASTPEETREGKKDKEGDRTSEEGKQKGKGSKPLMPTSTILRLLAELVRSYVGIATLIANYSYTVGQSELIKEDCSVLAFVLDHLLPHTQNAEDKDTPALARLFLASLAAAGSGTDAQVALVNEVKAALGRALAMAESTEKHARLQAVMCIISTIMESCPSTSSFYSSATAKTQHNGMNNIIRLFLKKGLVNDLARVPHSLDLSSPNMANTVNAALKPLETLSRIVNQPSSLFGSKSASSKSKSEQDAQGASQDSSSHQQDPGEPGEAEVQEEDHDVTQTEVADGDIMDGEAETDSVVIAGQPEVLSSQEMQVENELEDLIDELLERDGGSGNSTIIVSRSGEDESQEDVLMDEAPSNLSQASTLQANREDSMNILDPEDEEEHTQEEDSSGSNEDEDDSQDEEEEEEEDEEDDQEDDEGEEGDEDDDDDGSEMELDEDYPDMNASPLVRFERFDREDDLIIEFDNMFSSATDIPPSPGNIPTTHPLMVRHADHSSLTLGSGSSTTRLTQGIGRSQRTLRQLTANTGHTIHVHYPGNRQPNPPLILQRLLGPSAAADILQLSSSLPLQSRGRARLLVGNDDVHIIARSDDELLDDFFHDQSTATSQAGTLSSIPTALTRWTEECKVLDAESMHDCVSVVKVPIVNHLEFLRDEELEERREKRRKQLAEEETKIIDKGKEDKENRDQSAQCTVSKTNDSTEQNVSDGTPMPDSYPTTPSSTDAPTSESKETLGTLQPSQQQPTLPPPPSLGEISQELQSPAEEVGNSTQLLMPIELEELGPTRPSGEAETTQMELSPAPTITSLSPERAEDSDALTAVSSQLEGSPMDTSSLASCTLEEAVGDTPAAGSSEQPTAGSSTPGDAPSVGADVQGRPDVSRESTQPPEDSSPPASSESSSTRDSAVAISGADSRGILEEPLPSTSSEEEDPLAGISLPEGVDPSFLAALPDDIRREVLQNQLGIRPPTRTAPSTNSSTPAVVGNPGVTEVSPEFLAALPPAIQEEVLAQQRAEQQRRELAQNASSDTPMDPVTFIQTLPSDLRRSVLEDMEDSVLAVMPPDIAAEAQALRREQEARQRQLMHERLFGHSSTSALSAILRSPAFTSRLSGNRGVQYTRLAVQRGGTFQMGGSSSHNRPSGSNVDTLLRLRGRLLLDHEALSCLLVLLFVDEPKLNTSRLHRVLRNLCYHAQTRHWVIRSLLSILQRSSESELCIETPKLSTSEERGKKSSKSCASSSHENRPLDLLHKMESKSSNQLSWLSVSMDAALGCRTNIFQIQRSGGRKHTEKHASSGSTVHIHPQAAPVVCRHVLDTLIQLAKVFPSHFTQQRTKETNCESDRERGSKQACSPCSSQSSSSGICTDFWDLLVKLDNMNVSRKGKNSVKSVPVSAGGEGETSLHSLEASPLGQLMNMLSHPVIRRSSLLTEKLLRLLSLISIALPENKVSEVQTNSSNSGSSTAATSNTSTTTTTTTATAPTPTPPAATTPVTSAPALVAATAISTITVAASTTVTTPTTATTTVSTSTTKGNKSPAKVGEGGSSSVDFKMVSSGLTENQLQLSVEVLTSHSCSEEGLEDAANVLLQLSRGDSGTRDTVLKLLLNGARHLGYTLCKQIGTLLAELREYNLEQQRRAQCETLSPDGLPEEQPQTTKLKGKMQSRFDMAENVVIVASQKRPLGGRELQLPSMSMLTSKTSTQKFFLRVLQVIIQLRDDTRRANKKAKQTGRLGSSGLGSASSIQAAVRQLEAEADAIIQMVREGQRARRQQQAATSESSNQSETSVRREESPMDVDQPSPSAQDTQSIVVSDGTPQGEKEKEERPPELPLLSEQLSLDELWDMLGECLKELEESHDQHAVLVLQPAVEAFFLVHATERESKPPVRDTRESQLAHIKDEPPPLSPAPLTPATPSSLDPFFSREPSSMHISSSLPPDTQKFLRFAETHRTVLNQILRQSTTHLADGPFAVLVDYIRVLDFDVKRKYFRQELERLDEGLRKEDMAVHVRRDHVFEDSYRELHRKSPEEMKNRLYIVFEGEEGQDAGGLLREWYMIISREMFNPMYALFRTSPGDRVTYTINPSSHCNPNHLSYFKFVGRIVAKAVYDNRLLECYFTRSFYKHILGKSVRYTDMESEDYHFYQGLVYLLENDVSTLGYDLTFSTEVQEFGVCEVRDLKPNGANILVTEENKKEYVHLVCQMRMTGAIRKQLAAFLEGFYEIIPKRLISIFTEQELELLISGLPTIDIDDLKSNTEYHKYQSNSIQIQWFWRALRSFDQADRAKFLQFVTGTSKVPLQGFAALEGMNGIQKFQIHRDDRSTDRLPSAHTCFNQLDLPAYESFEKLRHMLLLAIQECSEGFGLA

Columns and labels:
[1] = target: T1, Growth arrest and DNA-damage inducible protein 45 beta (Gadd45b) (rat (endogenous in primary cortical neurons)) (UniProt F7FLQ8); assay: co-IP; lysate of primary rat cortical neurons, normal or OGD 3 h and reperfusion 24 h; 1 ug anti-Huwe1, anti-Gadd45b or anti-IgG antibody at 4 °C overnight, magnetic beads 10 min at room temperature, washed 3 times with PBS/Tween, Western blot; IgG as negative control
T1 sequence: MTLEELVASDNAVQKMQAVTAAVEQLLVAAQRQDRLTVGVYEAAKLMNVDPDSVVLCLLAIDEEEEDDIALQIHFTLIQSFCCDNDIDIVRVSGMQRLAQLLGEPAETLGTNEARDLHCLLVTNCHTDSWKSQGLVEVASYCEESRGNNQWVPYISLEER

[2] = target: Huwe1 (HECT, UBA and WWE domain containing 1) (rat (endogenous in primary cortical neurons)) (UniProt P51593); assay: as above

Molecule: Huwe1 (HECT, UBA and WWE domain containing 1) (from UniProt P51593 1-4454) (enzyme)
- binding [1]: binds

- binding [2]: binds
B1: Growth arrest and DNA-damage inducible protein 45 beta (Gadd45b) (protein, UniProt F7FLQ8 1-160)
chain: T1 sequence
